PubChem BioAssay AID1259308, NCATS, 2017

- Purpose: 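Candidate targets for better recombinant protein yield in mammalian cells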 (primary screen)
- Cells: human HEK293 embryonic kidney cells stably expressing firefly luciferase (HEK-CMV-Luc2-Hygro)
- Knock-down reagent: single siRNA against human genes, 0.8 pmol siRNA per well
- Timing: 72 h
- Detection: 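Reporter luminescence and viable-cell signal on separate replicate plates, given as percent of non-targeting control and median/MAD z-scores, plus per-cell luciferase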
- Direction: total luciferase, z-score: higher = more reporter protein produced
- Hit rule: 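Active when the median/MAD z-score for overall luciferase is greater than 3; a gene was taken forward for validation with new siRNAs if at least two of its three siRNAs passed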
- Calls: active = raised luciferase; inactive = no rise
Here is one part, drawn at random, of about 59,000 deposited reagents. About 1,510 of them (2.6%) were called active. 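Calls use total luciferase alone and ignore viability, so some active siRNAs may act by altering cell number.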 Reagents against one gene are numbered here. Further read-outs or replicates are left out here. No sequences are given here.

TTC7A #1
- total luciferase, z-score: 2.45
- outcome: inactive

TTC7A #2
- total luciferase, z-score: 4.17
- outcome: active

TTC7A #3
- total luciferase, z-score: -0.371
- outcome: inactive

GALNT2 #1
- total luciferase, z-score: -1.45
- outcome: inactive

GALNT2 #2
- total luciferase, z-score: -0.748
- outcome: inactive

GALNT2 #3
- total luciferase, z-score: -1.5
- outcome: inactive

SCN4A #1
- total luciferase, z-score: -0.222
- outcome: inactive

SCN4A #2
- total luciferase, z-score: -1.46
- outcome: inactive

SCN4A #3
- total luciferase, z-score: 1.28
- outcome: inactive

TNFRSF9 #1
- total luciferase, z-score: -0.688
- outcome: inactive

TNFRSF9 #2
- total luciferase, z-score: -1.39
- outcome: inactive

TNFRSF9 #3
- total luciferase, z-score: 1.05
- outcome: inactive

EMSY #1
- total luciferase, z-score: 1.78
- outcome: inactive

EMSY #2
- total luciferase, z-score: 0.695
- outcome: inactive

EMSY #3
- total luciferase, z-score: 1.7
- outcome: inactive

DNAJC10 #1
- total luciferase, z-score: 0.825
- outcome: inactive

DNAJC10 #2
- total luciferase, z-score: -0.319
- outcome: inactive

DNAJC10 #3
- total luciferase, z-score: -1.93
- outcome: inactive

MARCHF5 #1
- total luciferase, z-score: -0.535
- outcome: inactive

MARCHF5 #2
- total luciferase, z-score: -0.264
- outcome: inactive

MARCHF5 #3
- total luciferase, z-score: -0.392
- outcome: inactive

The list goes on (3 carried over from the part before).
MARCHF5 #1
- total luciferase, z-score: -0.535
- outcome: inactive

MARCHF5 #2
- total luciferase, z-score: -0.264
- outcome: inactive

MARCHF5 #3
- total luciferase, z-score: -0.392
- outcome: inactive

MAFB #1
- total luciferase, z-score: 0.361
- outcome: inactive

MAFB #2
- total luciferase, z-score: -0.0624
- outcome: inactive

MAFB #3
- total luciferase, z-score: 0.197
- outcome: inactive

CDHR2 #1
- total luciferase, z-score: -0.28
- outcome: inactive

CDHR2 #2
- total luciferase, z-score: 1.33
- outcome: inactive

CDHR2 #3
- total luciferase, z-score: -2.69
- outcome: inactive

SHPRH #1
- total luciferase, z-score: -0.502
- outcome: inactive

SHPRH #2
- total luciferase, z-score: -0.975
- outcome: inactive

SHPRH #3
- total luciferase, z-score: -0.216
- outcome: inactive

SEC23A #1
- total luciferase, z-score: -0.0718
- outcome: inactive

SEC23A #2
- total luciferase, z-score: -0.61
- outcome: inactive

SEC23A #3
- total luciferase, z-score: 0.148
- outcome: inactive
